The list shows only some results of the screen, not a fair sample: it is rich in T/C values a quarter to a half above the control, in often repeated tests (any T/C) and in doses without a T/C. Other doses and runs of a compound stand elsewhere. T/C gives the treated animals as a percentage of the vehicle group. Some entries give survivors of the animals treated and no T/C: the source holds a T/C of zero for them, seemingly a mark for toxic or unscored doses. Some survivor counts are full or nearly so, which does not show that the dose was tolerated: survival well below the control is almost never listed, so the zero probably covers shortened survival too. Survivors were counted at the toxicity check, usually on the fifth day, unless a day is given; later deaths do not show. Schedules are NCI's codes, taken here to give the interval after Q, in days (D) or hours (H), and the number of doses after X. Some entries were tested several times; the results are listed from low to high. Some molecules as drawn cover several salts, stereoisomers or complexes of the source; a dose is that of the sample tested. For survival time, the PubChem record calls one and a half times the control and up active, and a quarter to a half above the control has no call in these data; cut-offs in other NCI protocols can differ. Some T/C values carry the count of animals alive at the toxicity check (mostly the fifth day); where none is given, no animal had died by that day.
Tested on: CD2F1 mice, L1210 leukemia ip, survival T/C
Test: NCI In Vivo Anticancer Drug Screen. Data for tumor model L1210 Leukemia (intraperitoneal) in CD2F1 (CDF1) mice
Settings: higher T/C = longer survival
Outline: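 Compound-dosed mice with transplantable tumor versus matched vehicle controls; endpoint ratio T/C reported.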

[1] = T/C endpoint: mean survival time, dose: 100.0 mg/kg/injection, schedule: Q04DX003 (ip), vehicle: saline with Tween-80
[2] = T/C endpoint: mean survival time, dose: 200.0 mg/kg/injection, schedule: Q04DX003 (ip), vehicle: saline with Tween-80
[3] = T/C endpoint: mean survival time, dose: 400.0 mg/kg/injection, schedule: Q04DX003 (ip), vehicle: saline with Tween-80
[4] = T/C endpoint: mean survival time, dose: 80.0 mg/kg/injection, schedule: Q01DX001 (ip), vehicle: saline
[5] = T/C endpoint: mean survival time, dose: 400.0 mg/kg/injection, schedule: Q01DX001 (ip), vehicle: saline with Tween-80
[6] = T/C endpoint: mean survival time, dose: 400.0 mg/kg/injection, schedule: Q01DX009 (ip), vehicle: saline with Tween-80
[7] = T/C endpoint: mean survival time, dose: 200.0 mg/kg/injection, schedule: Q01DX009 (ip), vehicle: saline with Tween-80
[8] = T/C endpoint: mean survival time, dose: 400.0 mg/kg/injection, schedule: Q04DX003 (ip), vehicle: Klucel (hydroxypropylcellulose) (HPC)
[9] = T/C endpoint: mean survival time, dose: 400.0 mg/kg/injection, schedule: Q04DX003 (ip), vehicle: saline

## COc1ccc2c(ccc[n+]2C)c1
T/C endpoint: mean survival time, dose: 33.0 mg/kg/injection, schedule: Q01DX009 (ip), vehicle: saline
  T/C: 127 % of control [5 of 6 alive]
T/C endpoint: mean survival time, dose: 50.0 mg/kg/injection, schedule: Q01DX009 (ip), vehicle: alcohol
  T/C: 131 % of control
T/C endpoint: mean survival time, dose: 50.0 mg/kg/injection, schedule: Q01DX009 (ip), vehicle: saline
  survivor count: 2 of 6
T/C endpoint: mean survival time, dose: 75.0 mg/kg/injection, schedule: Q01DX009 (ip), vehicle: saline
  survivor count: 0 of 6
[1]
  survivor count: 0 of 6
[2]
  survivor count: 0 of 6
[3]
  survivor count: 0 of 6

## C=CCCCCCCCCCCC(=O)OC
[3]
  survivor count: 6 of 6

## CCC(=O)NC1=C(Cl)C(=O)c2ccccc2C1=O
T/C endpoint: mean survival time, dose: 40.0 mg/kg/injection, schedule: Q01DX001 (ip), vehicle: saline
  survivor count: 0 of 6
[4]
  survivor count: 0 of 6

## Cc1ccccc1N=Nc1ccc(O)cc1
[5]
  survivor count: 3 of 6

## O=C(NC(Cc1ccc(I)cc1)C(=O)O)c1ccc(Br)cc1 (stereo not drawn)
T/C endpoint: median survival time, dose: 400.0 mg/kg/injection, schedule: Q01DX009 (ip), vehicle: sodium bicarbonate
  survivor count: 0 of 6

## N#Cc1cccc(/C=C/c2ccc(S(=O)(=O)F)cc2)c1
T/C endpoint: mean survival time, dose: 400.0 mg/kg/injection, schedule: Q04DX003 (ip), vehicle: other
  survivor count: 3 of 3 and 6 of 6

## O=c1nc(-c2ccco2)sc(=O)[nH]1
T/C endpoint: median survival time, dose: 400.0 mg/kg/injection, schedule: Q01DX009 (ip), vehicle: Klucel (hydroxypropylcellulose) (HPC)
  survivor count: 0 of 6

## CCCC[S+](CCCC)CC(=O)c1ccc(-c2ccccc2)cc1
T/C endpoint: mean survival time, dose: 6.25 mg/kg/injection, schedule: Q01DX009 (ip), vehicle: saline
  survivor count: 6 of 6

## O=C1OC(=O)C2C3C=CC(C4C=CC43)C12 (stereo not drawn)
[5]
  survivor count: 0 of 6

## BrC1(Br)C2CCCCCCC21 (stereo not drawn)
[6]
  survivor count: 0 of 6

## Oc1c(C(c2ccccc2)N2CCOCC2)ccc2ccccc12 (stereo not drawn)
[3]
  survivor count: 3 of 6

## COc1cc(OC)c(NC(=O)Nc2cccc(SC)c2)cc1Cl
[7]
  survivor count: 3 of 3

## CN=C(Nc1ccc(OC)c2ccccc12)SC
[8]
  survivor count: 2 of 6

## CC(=O)ON1C(=O)c2cccc3cccc(c23)C1=O
[7]
  survivor count: 0 of 3

## CCCCCCOC(=O)C[n+]1ccc(C(N)=O)cc1
[9]
  survivor count: 5 of 6

## COc1ncn(C2CC(OC(=O)c3ccc(C)cc3)C(COC(=O)c3ccc(C)cc3)O2)c(=O)n1 (stereo not drawn)
[1]
  survivor count: 5 of 6
[3]
  survivor count: 6 of 6

## Cn1c(-c2ccccc2)cc(=O)cc1-c1ccccc1
[3]
  survivor count: 2 of 6

## S=C(Nc1ccccc1)Nc1ccc(NC(=S)Nc2ccccc2)cc1
[7]
  survivor count: 6 of 6

## CNC(=O)OCc1c(COC(=O)NC)c(C)n(-c2ccc(OC)cc2)c1C
T/C endpoint: mean survival time, dose: 100.0 mg/kg/injection, schedule: Q01DX009 (ip), vehicle: Klucel (hydroxypropylcellulose) (HPC)
  survivor count: 3 of 6

## Cc1cc(C)c2nc(-c3ccc(Cl)cc3)cc(C(=O)O)c2c1
T/C endpoint: mean survival time, dose: 200.0 mg/kg/injection, schedule: Q01DX001 (ip), vehicle: saline
  survivor count: 1 of 6
T/C endpoint: mean survival time, dose: 400.0 mg/kg/injection, schedule: Q01DX001 (ip), vehicle: saline
  survivor count: 0 of 6
T/C endpoint: mean survival time, dose: 400.0 mg/kg/injection, schedule: Q04DX002 (ip), vehicle: Klucel (hydroxypropylcellulose) (HPC)
  survivor count: 2 of 3

## C/C=C/CNc1ccc(C)cc1
[2]
  survivor count: 2 of 6
[3]
  survivor count: 2 of 6

## CCOC(=O)CCC(NC(=O)c1cc(Cl)c(N(CC)Cc2cnc3nc(N)nc(N)c3n2)c(Cl)c1)C(=O)OCC (stereo not drawn)
T/C endpoint: mean survival time, dose: 6.25 mg/kg/injection, schedule: Q01DX009 (ip), vehicle: Klucel (hydroxypropylcellulose) (HPC)
  T/C: 135 % of control
T/C endpoint: mean survival time, dose: 12.5 mg/kg/injection, schedule: Q01DX009 (ip), vehicle: Klucel (hydroxypropylcellulose) (HPC)
  T/C: 147 % of control

## CCCOC(=O)c1cc([N+](=O)[O-])c(Sc2ncnc3nc[nH]c23)c([N+](=O)[O-])c1
T/C endpoint: mean survival time, dose: 15.6 mg/kg/injection, schedule: Q01DX005 (ip), vehicle: other
  T/C: 142 % of control
T/C endpoint: mean survival time, dose: 31.3 mg/kg/injection, schedule: Q01DX005 (ip), vehicle: other
  T/C: 146 % of control

## Cc1ccc(CCl)cc1
[7]
  survivor count: 2 of 6

## CC(=O)c1ccco1
[1]
  survivor count: 0 of 6

## O=P(OCc1ccccc1)(N(CCCl)CCCl)N1CCOCC1 (stereo not drawn)
T/C endpoint: mean survival time, dose: 500.0 mg/kg/injection, schedule: Q01DX010 (ip), vehicle: saline
  survivor count: 0 of 6

## CCCCCC(CN(C)C)C(=O)/C=C/c1ccc(Cl)c(Cl)c1 (stereo not drawn)
T/C endpoint: mean survival time, dose: 35.0 mg/kg/injection, schedule: Q01DX009 (ip), vehicle: saline
  survivor count: 1 of 6
T/C endpoint: mean survival time, dose: 55.0 mg/kg/injection, schedule: Q01DX009 (ip), vehicle: saline
  survivor count: 0 of 6
T/C endpoint: mean survival time, dose: 80.0 mg/kg/injection, schedule: Q01DX009 (ip), vehicle: saline
  survivor count: 0 of 6

## O=C(CBr)c1ccccc1
T/C endpoint: mean survival time, dose: 20.0 mg/kg/injection, schedule: Q01DX009 (ip), vehicle: saline with Tween-80
  survivor count: 2 of 6

## CC(C)[CH2][Sn](=[O])[OH]
[7]
  survivor count: 3 of 3

## CCOC(=O)c1sc(=S)[nH]c1C
T/C endpoint: mean survival time, dose: 100.0 mg/kg/injection, schedule: Q01DX009 (ip), vehicle: saline with Tween-80
  survivor count: 6 of 6

## CCC12CCCN3CCc4c(n(c5ccccc45)C(O)(C(=O)OC)C1)C32 (stereo not drawn)
T/C endpoint: mean survival time, dose: 75.0 mg/kg/injection, schedule: Q01DX001 (ip), vehicle: saline
  survivor count: 0 of 6
[4]
  survivor count: 0 of 6
T/C endpoint: mean survival time, dose: 150.0 mg/kg/injection, schedule: Q01DX001 (ip), vehicle: saline
  survivor count: 0 of 6
T/C endpoint: mean survival time, dose: 300.0 mg/kg/injection, schedule: Q01DX001 (ip), vehicle: saline
  survivor count: 0 of 6

## ClC1C2c3ccccc3C(C1Cl)[n+]1ccccc12 (stereo not drawn)
T/C endpoint: mean survival time, dose: 50.0 mg/kg/injection, schedule: Q04DX003 (ip), vehicle: Klucel (hydroxypropylcellulose) (HPC)
  survivor count: 6 of 6

## [Cl][Pt+2][Cl].[NH-]c1ccccc1-c1ccccc1[NH-]
T/C endpoint: mean survival time, dose: 200.0 mg/kg/injection, schedule: Q04DX003 (ip), vehicle: saline
  survivor count: 1 of 6

## COC(=O)c1cc([N+](=O)[O-])c(Sc2ncnc3nc[nH]c23)c([N+](=O)[O-])c1
T/C endpoint: mean survival time, dose: 25.0 mg/kg/injection, schedule: Q01DX005 (ip), vehicle: other
  T/C: 139 % of control
T/C endpoint: mean survival time, dose: 37.5 mg/kg/injection, schedule: Q01DX005 (ip), vehicle: other
  survivor count: 3 of 6
T/C endpoint: mean survival time, dose: 100.0 mg/kg/injection, schedule: Q01DX005 (ip), vehicle: other
  survivor count: 2 of 3
T/C endpoint: mean survival time, dose: 200.0 mg/kg/injection, schedule: Q01DX005 (ip), vehicle: other
  survivor count: 0 of 3

## O=C1OC(c2ccccc2)(c2ccccc2)C(=O)N1c1ccc(Br)cc1
T/C endpoint: median survival time, dose: 50.0 mg/kg/injection, schedule: Q04DX003 (ip), vehicle: saline with Tween-80
  survivor count: 3 of 3
T/C endpoint: median survival time, dose: 100.0 mg/kg/injection, schedule: Q04DX003 (ip), vehicle: saline with Tween-80
  survivor count: 3 of 3
T/C endpoint: median survival time, dose: 200.0 mg/kg/injection, schedule: Q04DX003 (ip), vehicle: saline with Tween-80
  survivor count: 2 of 3

## COc1cc2c[n+](C)c3c(c2cc1OC)Cc1cc2c(cc1-3)OCO2
T/C endpoint: median survival time, dose: 6.25 mg/kg/injection, schedule: Q01DX009 (ip), vehicle: saline with Tween-80
  T/C: 141 % of control
T/C endpoint: median survival time, dose: 12.0 mg/kg/injection, schedule: Q01DX009 (ip), vehicle: saline with Tween-80
  T/C: 138 % of control
T/C endpoint: median survival time, dose: 12.5 mg/kg/injection, schedule: Q01DX009 (ip), vehicle: saline with Tween-80
  T/C: 144 % of control
T/C endpoint: median survival time, dose: 100.0 mg/kg/injection, schedule: Q01DX009 (ip), vehicle: saline with Tween-80
  survivor count: 6 of 6

## CC1CC1C(=O)O (stereo not drawn)
[9]
  survivor count: 0 of 3

## O=C/C=C/c1ccc([N+](=O)[O-])cc1
[8]
  survivor count: 6 of 6

## CN(Cc1c[nH]c2nc(N)nc(N)c2c1=O)c1ccc(C(=O)NC(CCC(=O)O)C(=O)O)cc1 (stereo not drawn)
T/C endpoint: mean survival time, dose: 8.0 mg/kg/injection, schedule: Q01DX005 (ip), vehicle: sodium bicarbonate
  T/C: 127 % of control

## Cc1cc2oc(=O)cc(N3CCOCC3)c2c(=O)o1
[3]
  survivor count: 4 of 6

## O=C(O)/C=C/C(=O)Nc1ccc(Cl)cc1
[6]
  survivor count: 0 of 6

## Clc1ccc(CN2COc3c(ccc4cccnc34)C2)cc1Cl
[6]
  survivor count: 0 of 6

From PubChem BioAssay AID256 (DTP/NCI, 2004)
